Drawing on publication PMC10444883, this text covers binding for 2 molecules.

The chains behind the UniProt entries cited, without tags or fusion partners.
UniProt P63024: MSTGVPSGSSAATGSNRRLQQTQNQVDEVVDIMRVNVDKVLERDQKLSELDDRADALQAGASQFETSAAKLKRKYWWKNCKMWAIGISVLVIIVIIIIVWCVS

Assay [1] has as its target T1, Synaptophysin-like protein 1 (SYPL1) (mouse (endogenous in testis)) (UniProt O09117).
T1 sequence: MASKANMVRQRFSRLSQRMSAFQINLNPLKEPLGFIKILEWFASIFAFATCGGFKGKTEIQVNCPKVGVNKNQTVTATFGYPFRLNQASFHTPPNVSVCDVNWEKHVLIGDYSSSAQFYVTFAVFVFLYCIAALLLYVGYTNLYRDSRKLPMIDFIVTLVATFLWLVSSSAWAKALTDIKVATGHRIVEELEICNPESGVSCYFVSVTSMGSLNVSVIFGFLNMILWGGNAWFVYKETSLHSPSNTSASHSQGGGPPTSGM
Kind of assay: co-IP; WT mouse testes lysed in 1% NP40 buffer with protease inhibitor and 1 mM PMSF; precleared lysate incubated with anti-SYPL1 rabbit monoclonal or anti-VAMP3 rabbit polyclonal antibody overnight at 4 °C; protein-A-agarose beads; Western blot.

Assay [2] addresses vesicle associated membrane protein 3 (VAMP3) (mouse (endogenous in testis)) (UniProt P63024). The assay is described as above.

Results are given in words; binding and its absence hold for the method and conditions named. In cells and extracts the contact can be indirect. Some results given as binding are weak or reduced against the parent protein; the word gives no strength.

On to “vesicle associated membrane protein 3 (VAMP3) (from UniProt P63024 1-103)”, for which, in assay [1], the binding result is recorded as “binds”.

B1: Synaptophysin-like protein 1 (SYPL1) (protein, UniProt O09117 1-261)
chain: MASKANMVRQRFSRLSQRMSAFQINLNPLKEPLGFIKILEWFASIFAFATCGGFKGKTEIQVNCPKVGVNKNQTVTATFGYPFRLNQASFHTPPNVSVCDVNWEKHVLIGDYSSSAQFYVTFAVFVFLYCIAALLLYVGYTNLYRDSRKLPMIDFIVTLVATFLWLVSSSAWAKALTDIKVATGHRIVEELEICNPESGVSCYFVSVTSMGSLNVSVIFGFLNMILWGGNAWFVYKETSLHSPSNTSASHSQGGGPPTSGM
With B1, the binding entry in assay [2] is listed as “binds”.
